Values of other authors as cited in patent US10332616B2, “Movable type method applied to protein-ligand binding” (University of Florida Research Foundation, Inc., priority 2013, dated 2019).
For at least one compound, name, drawing or mass did not settle the structure.

Conditions: aqueous solvation free energy, charged compounds (ions)

## NN [i048, hydrazine, reference compound]
  Exp. ΔGsolv: -84.60 kcal/mol
